Results from PubChem BioAssay (NCATS).
The hits were mostly taken out for another list; the other results follow. Results filed as inconclusive are left out. Calls of active or inactive are those of the source. Calls come from the whole dose curve; as a rule, active = well fitted inhibition curve with a large enough effect; inconclusive = small, poorly fitted or top-dose-only effect; inactive = flat fitted curve, though single readings scatter.

Tests used:
Test in all cases: qHTS profiling for inhibitors of Plasmodium falciparum proliferation (AID 504749);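 note: 0% = DMSO vehicle and full inhibition = artemisinin control; nearly all actives have a fitted effect of over 60% in size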
Settings in all cases: P. falciparum in erythrocytes, SYBR Green DNA, 72 h; at 28.7 µM (top of the series)
FAB9 = test system: FAB9
Procedure, shortened: (§1)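 Fluorescence of SYBR Green-bound parasite DNA, read at 485/535 nm, served as the growth measure. Infected erythrocytes were cultured with compound 72 h; artemisinin (0.29 uM) and DMSO wells defined the normalization range.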

HB3 = test system: HB3
Procedure, shortened: as §1

ICS = test system: ICS
Procedure, shortened: as §1

JCK = test system: JCK
Procedure, shortened: as §1

N140 = test system: N140
Procedure, shortened: as §1

P93_24 = test system: P93_24
Procedure, shortened: as §1

P94_40 = test system: P94_40
Procedure, shortened: as §1

PAD = test system: PAD
Procedure, shortened: as §1

PC15 = test system: PC15
Procedure, shortened: as §1

PC49 = test system: PC49
Procedure, shortened: as §1

Measured: activity, negative = inhibition

CC(C)(C)c1ccc(O)cc1
inactive: FAB9 = 8.6% | HB3 = 2.68% | ICS 18.9% | JCK 4.55% | N140 = 4.8% | P93_24 = -4.12% | P94_40 = 5.04% | PAD 15.5% | PC15 = -2.44% | PC49 = 3.92%
